Measurements reported in publication PMC10745200.

The chains behind the UniProt entries cited, without tags or fusion partners. Where a name states a change or a piece, a line headed by the entry shows the natural chain unless it says otherwise.
UniProt Q9UK99: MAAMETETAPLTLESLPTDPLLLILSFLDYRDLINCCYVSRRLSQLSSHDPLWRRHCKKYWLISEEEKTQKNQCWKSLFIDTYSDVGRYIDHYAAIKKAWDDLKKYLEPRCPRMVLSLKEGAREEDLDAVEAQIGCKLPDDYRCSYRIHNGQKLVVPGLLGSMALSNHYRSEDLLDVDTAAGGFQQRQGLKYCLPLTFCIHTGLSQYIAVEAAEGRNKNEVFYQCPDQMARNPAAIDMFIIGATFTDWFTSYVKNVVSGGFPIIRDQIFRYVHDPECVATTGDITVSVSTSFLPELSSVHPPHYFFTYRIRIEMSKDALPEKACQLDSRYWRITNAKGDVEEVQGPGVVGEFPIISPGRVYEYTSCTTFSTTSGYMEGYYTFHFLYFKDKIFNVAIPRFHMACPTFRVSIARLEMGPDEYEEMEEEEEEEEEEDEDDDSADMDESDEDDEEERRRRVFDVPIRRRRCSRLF

Molecular target: T1, Flag-USP4 (UniProt Q13107)
T1 sequence: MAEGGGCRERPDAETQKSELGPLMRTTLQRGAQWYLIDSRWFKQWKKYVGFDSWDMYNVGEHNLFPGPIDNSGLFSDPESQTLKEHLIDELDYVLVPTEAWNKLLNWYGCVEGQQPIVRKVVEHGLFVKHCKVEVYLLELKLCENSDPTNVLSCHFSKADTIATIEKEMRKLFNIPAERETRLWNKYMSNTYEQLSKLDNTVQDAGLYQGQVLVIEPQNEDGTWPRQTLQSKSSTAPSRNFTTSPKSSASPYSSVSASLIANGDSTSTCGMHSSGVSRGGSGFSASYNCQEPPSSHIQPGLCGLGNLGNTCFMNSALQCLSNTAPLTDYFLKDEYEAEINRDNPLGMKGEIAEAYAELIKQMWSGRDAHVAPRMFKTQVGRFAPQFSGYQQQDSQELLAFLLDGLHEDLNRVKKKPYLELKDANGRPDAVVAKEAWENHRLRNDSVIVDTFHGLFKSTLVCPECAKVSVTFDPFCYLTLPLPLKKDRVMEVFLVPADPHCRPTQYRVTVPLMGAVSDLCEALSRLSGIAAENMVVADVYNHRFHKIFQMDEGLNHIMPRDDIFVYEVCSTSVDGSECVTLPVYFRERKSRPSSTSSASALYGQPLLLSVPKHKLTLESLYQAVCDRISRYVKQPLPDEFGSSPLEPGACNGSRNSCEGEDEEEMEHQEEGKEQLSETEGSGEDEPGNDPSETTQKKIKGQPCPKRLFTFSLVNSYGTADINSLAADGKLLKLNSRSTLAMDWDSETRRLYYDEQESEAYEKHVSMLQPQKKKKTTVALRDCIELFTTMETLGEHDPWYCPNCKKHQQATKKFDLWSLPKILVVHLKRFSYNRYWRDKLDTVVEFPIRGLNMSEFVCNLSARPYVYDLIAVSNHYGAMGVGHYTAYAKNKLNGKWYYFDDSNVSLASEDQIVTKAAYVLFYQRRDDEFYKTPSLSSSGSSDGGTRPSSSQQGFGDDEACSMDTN
Assay: co-IP; Fig 4F: HEK293T co-transfected with Flag-USP4 and HA-FBXO3, HA-FBXO3^ΔApaG, HA-FBXO3^ΔF or vector for 36 h, then 0.5 μm Tosedostat for 16 h; IP-western; FLAG/HA M2-conjugated agarose beads, 4°C overnight; which tag was precipitated is not told

| Substance | binding |
| --- | --- |
| HA-FBXO3^ΔApaG (from UniProt Q9UK99) | no binding |
| HA-FBXO3^ΔF (from UniProt Q9UK99) | binds |

Results are given in words; binding and its absence hold for the method and conditions named. In cells and extracts the contact can be indirect. Binding calls can cover weak binding; strength is not graded here. Where a sequence is shown, tags or fusion partners need not be part of it.
